Results taken from article PMC12796345.
Results are given in words; binding and its absence hold for the method and conditions named. Binding seen in cells or lysates may run through a third protein. These calls come from enrichment with a bait or labelling near it, and not all partners need be listed.

Target: Flag-RIP3 (reconstituted in L929 cells), Q9QZL0
Test: affinity purification with mass spectrometry; Flag-RIP3- or Flag-MLKL-reconstituted L929 cells, 10 ng/mL TNF for 0, 120, 210, 330 and 420 min; HBS lysis buffer (12.5 mM HEPES, 150 mM NaCl, 1% Nonidet P-40, pH 7.5); anti-Flag M2 agarose overnight at 4 °C; eluted with 3x flag peptide; heavy-labelled protein standards; DDA and SWATH-MS
Conditions: remark: other sources report otherwise

B1: RIP1 (endogenous, L929 cells), Q60855 1-656 (protein)
chain: MQPDMSLDNIKMASSDLLEKTDLDSGGFGKVSLCYHRSHGFVILKKVYTGPNRAEYNEVLLEEGKMMHRLRHSRVVKLLGIIIEEGNYSLVMEYMEKGNLMHVLKTQIDVPLSLKGRIIVEAIEGMCYLHDKGVIHKDLKPENILVDRDFHIKIADLGVASFKTWSKLTKEKDNKQKEVSSTTKKNNGGTLYYMAPEHLNDINAKPTEKSDVYSFGIVLWAIFAKKEPYENVICTEQFVICIKSGNRPNVEEILEYCPREIISLMERCWQAIPEDRPTFLGIEEEFRPFYLSHFEEYVEEDVASLKKEYPDQSPVLQRMFSLQHDCVPLPPSRSNSEQPGSLHSSQGLQMGPVEESWFSSSPEYPQDENDRSVQAKLQEEASYHAFGIFAEKQTKPQPRQNEAYNREEERKRRVSHDPFAQQRARENIKSAGARGHSDPSTTSRGIAVQQLSWPATQTVWNNGLYNQHGFGTTGTGVWYPPNLSQMYSTYKTPVPETNIPGSTPTMPYFSGPVADDLIKYTIFNSSGIQIGNHNYMDVGLNSQPPNNTCKEESTSRHQAIFDNTTSLTDEHLNPIRENLGRQWKNCARKLGFTESQIDEIDHDYERDGLKEKVYQMLQKWLMREGTKGATVGKLAQALHQCCRIDLLNHLIRASQS
- binding: binds
